Reference: paper PMC6070540, “SUMO-mediated regulation of NLRP3 modulates inflammasome activity” (Nature Communications, 2018)
Results are given in words; binding and its absence hold for the method and conditions named. Binding seen in cells or lysates may run through a third protein. Some results given as binding are weak or reduced against the parent protein; the word gives no strength.

Amino acid sequences for entries named in this document (tags omitted).
UniProt Q96P20: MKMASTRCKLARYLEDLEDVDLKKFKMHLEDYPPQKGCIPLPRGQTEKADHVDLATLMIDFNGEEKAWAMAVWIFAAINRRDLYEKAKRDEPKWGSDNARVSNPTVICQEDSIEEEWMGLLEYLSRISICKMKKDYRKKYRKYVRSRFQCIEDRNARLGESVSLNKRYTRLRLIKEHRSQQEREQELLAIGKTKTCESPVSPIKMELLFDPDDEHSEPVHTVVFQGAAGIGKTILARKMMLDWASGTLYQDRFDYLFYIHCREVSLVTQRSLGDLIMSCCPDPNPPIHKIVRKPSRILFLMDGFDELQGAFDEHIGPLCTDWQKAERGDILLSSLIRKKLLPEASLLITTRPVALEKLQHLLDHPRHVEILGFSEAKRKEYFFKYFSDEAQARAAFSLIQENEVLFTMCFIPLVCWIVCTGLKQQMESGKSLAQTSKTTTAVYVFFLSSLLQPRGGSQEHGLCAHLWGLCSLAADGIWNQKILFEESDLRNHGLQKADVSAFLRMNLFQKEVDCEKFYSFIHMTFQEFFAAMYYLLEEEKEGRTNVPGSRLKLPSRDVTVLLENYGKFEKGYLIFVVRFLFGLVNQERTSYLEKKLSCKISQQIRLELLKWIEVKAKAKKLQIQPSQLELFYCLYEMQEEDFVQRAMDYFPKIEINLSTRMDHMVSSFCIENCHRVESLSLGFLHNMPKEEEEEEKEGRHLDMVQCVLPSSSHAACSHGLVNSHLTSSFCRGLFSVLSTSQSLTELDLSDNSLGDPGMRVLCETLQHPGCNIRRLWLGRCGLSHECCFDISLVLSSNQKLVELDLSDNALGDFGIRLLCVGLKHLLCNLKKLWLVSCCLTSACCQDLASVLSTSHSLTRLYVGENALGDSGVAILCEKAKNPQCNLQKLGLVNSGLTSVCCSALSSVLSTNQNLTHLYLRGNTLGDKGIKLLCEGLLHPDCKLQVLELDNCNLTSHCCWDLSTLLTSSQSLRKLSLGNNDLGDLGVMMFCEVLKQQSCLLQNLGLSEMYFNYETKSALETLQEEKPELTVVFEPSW
UniProt Q969V5: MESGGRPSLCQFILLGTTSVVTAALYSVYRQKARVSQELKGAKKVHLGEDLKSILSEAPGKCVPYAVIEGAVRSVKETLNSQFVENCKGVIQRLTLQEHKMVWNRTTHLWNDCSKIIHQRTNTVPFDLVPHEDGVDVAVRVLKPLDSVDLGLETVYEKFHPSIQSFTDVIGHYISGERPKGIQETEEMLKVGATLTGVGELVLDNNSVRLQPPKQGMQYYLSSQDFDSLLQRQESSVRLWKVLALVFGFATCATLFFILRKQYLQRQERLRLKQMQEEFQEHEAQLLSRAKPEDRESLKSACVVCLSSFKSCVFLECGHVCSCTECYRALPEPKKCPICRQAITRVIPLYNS
UniProt Q8R4B8: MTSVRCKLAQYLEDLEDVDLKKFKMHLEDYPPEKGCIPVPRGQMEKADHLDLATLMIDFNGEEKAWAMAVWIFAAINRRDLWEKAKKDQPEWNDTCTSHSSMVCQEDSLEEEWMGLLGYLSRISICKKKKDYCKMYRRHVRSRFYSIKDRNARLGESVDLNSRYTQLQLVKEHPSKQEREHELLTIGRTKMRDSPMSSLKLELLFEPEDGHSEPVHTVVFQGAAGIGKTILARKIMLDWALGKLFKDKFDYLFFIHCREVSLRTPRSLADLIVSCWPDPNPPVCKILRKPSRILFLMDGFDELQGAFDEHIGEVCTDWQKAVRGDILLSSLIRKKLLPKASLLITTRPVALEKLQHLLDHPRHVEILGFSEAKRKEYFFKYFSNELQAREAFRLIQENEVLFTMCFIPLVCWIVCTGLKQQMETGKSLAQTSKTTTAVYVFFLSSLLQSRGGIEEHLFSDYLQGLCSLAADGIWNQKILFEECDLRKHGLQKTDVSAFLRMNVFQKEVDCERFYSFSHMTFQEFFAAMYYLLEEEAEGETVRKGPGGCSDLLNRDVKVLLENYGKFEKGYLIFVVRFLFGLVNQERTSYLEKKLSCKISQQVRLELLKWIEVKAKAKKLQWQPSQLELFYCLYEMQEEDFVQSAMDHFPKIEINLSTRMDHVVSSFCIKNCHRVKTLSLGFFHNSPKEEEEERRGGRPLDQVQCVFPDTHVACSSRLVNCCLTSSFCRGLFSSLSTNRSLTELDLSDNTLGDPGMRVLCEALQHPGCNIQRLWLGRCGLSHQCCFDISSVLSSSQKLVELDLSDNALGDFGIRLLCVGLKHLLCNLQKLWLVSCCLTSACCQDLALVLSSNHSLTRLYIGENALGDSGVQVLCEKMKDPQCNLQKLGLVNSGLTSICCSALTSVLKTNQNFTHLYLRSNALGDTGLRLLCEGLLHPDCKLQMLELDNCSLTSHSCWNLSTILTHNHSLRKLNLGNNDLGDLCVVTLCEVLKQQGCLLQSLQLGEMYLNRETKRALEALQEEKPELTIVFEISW

Columns and labels:
[1] = target: FLAG-tagged human NLRP3 (human) (UniProt Q96P20); assay: co-IP; HEK293T transfected with the indicated plasmids, lysed about 24 h later in 20 mM Tris pH 7.5, 150 mM NaCl, 1% Triton X-100, 10% glycerol, 2 mM EDTA; anti-FLAG or anti-HA agarose beads overnight; glycine elution, western blot
[2] = target: MAPL (mitochondrial-anchored protein ligase) with 2xHA/2xSTREP tag (UniProt Q969V5); assay: as above
[3] = target: endogenous NLRP3 of murine BMDMs (mouse (endogenous in immortalised BMDMs)) (UniProt Q8R4B8); assay: proximity ligation; Duolink PLA in fixed immortalised WT murine BMDMs treated with LPS (4 h) followed by 10 uM nigericin for 30 min or 5 mM ATP for 20 min; anti-NLRP3 with anti-MAPL, anti-SUMO-2/3 or anti-ASC
[4] = target: endogenous NLRP3 of murine BMDMs (mouse (endogenous in immortalised BMDMs)) (UniProt Q8R4B8); assay: proximity ligation; Duolink PLA in fixed immortalised WT murine BMDMs, untreated or primed with LPS (500 ng/ml, 4 h); anti-NLRP3 with anti-MAPL, anti-SUMO-2/3 or anti-ASC; also after non-targeting or Mapl siRNA; Nlrp3-/- BMDMs as control
[5] = target: endogenous NLRP3 of murine BMDMs (mouse (endogenous in immortalised BMDMs)) (UniProt Q8R4B8); assay: condition: only LPS (4 h) followed by 30 min with nigericin; proximity ligation; Duolink PLA in fixed immortalised WT murine BMDMs treated with LPS (4 h) followed by 10 uM nigericin for 30 min or 5 mM ATP for 20 min; anti-NLRP3 with anti-MAPL, anti-SUMO-2/3 or anti-ASC

“MAPL (mitochondrial-anchored protein ligase) with 2xHA/2xSTREP tag (from UniProt Q969V5 1-352)” was tested, and the binding [1] was “binds”.

With “FLAG-tagged human NLRP3 (from UniProt Q96P20 1-1036)” the binding [2] was “binds”.

B1: endogenous MAPL of murine BMDMs (protein, UniProt Q8VCM5 1-352)
chain: MESGSRPSLGQVILLGTSSMVTAVLYSIYRQKAQVAQELKGAKKIHLGEDLKGILSEAPGKCVPYAVIEGAVRSVKETLNSQFVENCKGVIQRLSLQEHKMVWNRTTHLWNDYSKIIHQRTNTVPFDLVPHEDGVAVSVRVLKPLDSVDLGLETVYEKFHPSVQSFTDAIGHYISGERPKGIQETEEMLKVGATLTGIGELVLDNNAVRLQPPKQGMQYYLSSQDFDSLLHRQESSVRLWKILVLVFGFATCATLFFILRKQYLHRQERLRQQQLQEEFLEHEAQLLSQASPEDRESLKSACVVCLSNFKSCVFLECGHVCSCRQCYLALPEPKRCPICRREITRVIPLYNS
In the case of B1, the binding [3] is reported as “binds weakly”, the binding [4] is reported as “binds” and the binding [5] is reported as “no binding”.
